Measurements published in article PMC12528905.
No constants are given. Whether binding was seen depends on the method and setting. Some entries that bind do so weakly or less than the wild type.

The chains behind the UniProt entries cited, without tags or fusion partners.
UniProt O00574: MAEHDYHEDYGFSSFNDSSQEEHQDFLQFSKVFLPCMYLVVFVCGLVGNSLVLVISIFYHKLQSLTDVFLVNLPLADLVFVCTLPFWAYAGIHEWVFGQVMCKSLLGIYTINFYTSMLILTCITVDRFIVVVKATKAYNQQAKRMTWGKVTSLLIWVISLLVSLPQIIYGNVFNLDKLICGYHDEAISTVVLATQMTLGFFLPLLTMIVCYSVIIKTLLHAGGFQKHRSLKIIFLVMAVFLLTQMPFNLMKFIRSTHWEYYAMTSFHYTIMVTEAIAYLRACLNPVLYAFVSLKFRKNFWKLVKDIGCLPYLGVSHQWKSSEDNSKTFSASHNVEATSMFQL

Columns and labels:
[1] = target: CXCR6 on CXCR6-expressing 293T cells (UniProt O00574); test: flow cytometry on cells; soluble ligand binding assay of CXCL16 on CXCR6-expressing cells in the presence of purified full-length IgG antibodies; only the binder purified
[2] = target: CXCR6 on CXCR6-expressing 293T cells (UniProt O00574); test: flow cytometry on cells; soluble ligand binding: CXCL16 (50 ng/ul) premixed with phage scFv or M13 helper phage (1 h, 4 C), then anti-His antibody (1 h, 4 C), added to fixed CXCR6-expressing 293T cells on ice for 30 min; only the binder purified

binding [1]: binds
binding [2]: binds
B1: CXC motif chemokine ligand 16 (CXCL16) (ligand, UniProt Q9H2A7 30-205)
chain: NEGSVTGSCYCGKRISSDSPPSVQFMNRLRKHLRAYHRCLYYTRFQLLSWSVCGGNKDPWVQELMSCLDLKECGHAYSGIVAHQKHLLPTSPPISQASEGASSDIHTPAQMLLSTLQSTQRPTLPVGSLSSDKELTRPNETTIHTAGHSLAAGPEAGENQKQPEKNAGPTARTSAT
